Laboratory results as given in PubChem BioAssay AID2685 (National Center for Advancing Translational Sciences (NCATS), 2010).
Screen size: about 320,000 compounds; about 2,100 (0.66%) were called active. Calls come from the whole dose curve; as a rule, active = well fitted inhibition curve with a large enough effect in the signal ratio, with a control signal flat (not every such curve was filed as active); inconclusive = small, poorly fitted or top-dose-only effect, or effect the other way, or a change in a side signal; inactive = flat fitted curve, though single readings scatter; the % refers to the signal ratio. Inconclusive results, whose numbers are uncertain, are shown. Potencies of inconclusive entries are doubtful fits and often do not repeat.

Experiment: qHTS Assay for Lipid Storage Modulators in Drosophila S3 Cells
Conditions: BODIPY lipid droplet fluorescence, 18-24 h, cells fed with added oleic acid; lipid storage change, negative = inhibition: at 46.1 µM (top of the series) unless noted
In short: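 Laser-scanning cytometry quantifies lipid droplet accumulation (500–530 nm total intensity; droplet/cell object ratio) in oleic acid-fed (400 uM added) Drosophila S3 cells treated with a concentration series. 20 uM Triacsin C defined 100% inhibition.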
% is set by controls: 0 for no effect and ±100 for the full control effect; potency is the fitted concentration of half-maximal effect.

Lipid storage change, negative = inhibition, inconclusive:
O=S(=O)(Nc1ccc(O)c(CN2CCCCC2)c1)c1ccccc1 13%
Cc1ccc(NS(=O)(=O)c2ccc(OCC(=O)N3CCOCC3)cc2)cc1 158%
O=C(NC1CC1)c1ccc2c(c1)C1C3CCC(C3)C1C(c1ccccc1)N2 (stereo not given) -43.8%
O=C(CC(=O)NC1CCCCC1)N/N=C/c1ccccc1[N+](=O)[O-] 83.9%
COc1ccc(C(=O)Nc2nnc(S(=O)(=O)Cc3ccc(F)cc3)s2)cc1 58.1%
CCN(CC)CCn1c2c(c(SCC(=O)Nc3ccc(C(C)C)cc3)nc1=O)CCCC2 29.8%
Cc1cccc(NC(=O)c2nc[nH]c2C(=O)N[C@@H](CC(C)C)C(=O)OCc2ccccc2)c1 -25.6%
CN(C)S(=O)(=O)c1cccc(NC(=S)N/N=C/C2CC=CCC2)c1 (stereo not given) 107%
CCN(Cc1ccccc1)C(=O)CCS(=O)(=O)c1ccc2c(c1)NC(=O)CO2 1.07%
COc1cccc2c(=O)n(CC(=O)N3CCN(c4ccccc4)CC3)ccc12 10.8%
C=CCN1C(=O)/C(=C/c2cccs2)S/C1=N\S(=O)(=O)c1ccc(F)cc1 -6.52%
Cc1cccc(NC(=O)Cc2nnc(NC(=O)Nc3ccccc3F)s2)c1 -1.05%
COc1cc(C2C(C#N)=C(N)Oc3n[nH]c(-c4cccnc4)c32)ccc1OCC(N)=O (stereo not given) 1.55%
COC(=O)c1cn(NC(=O)c2cccc(N(C)C)c2)c(=O)c2ccccc12 -30.6%

Potency, inconclusive:
CCN1C(=O)[C@@H]2[C@@H](c3ccc(-c4ccc5c(c4)OCO5)cc3)N3CCCC[C@@]3(C(=O)OC)[C@@H]2C1=O 5.8 µM [activator, single point]
CCCCC(=O)c1ccc(O)cc1 0.164 µM [falling, full curve, poor fit]
COc1cc2nc(CN3CCN(C(C)=O)CC3)[nH]c(=O)c2cc1OC 3.66 µM [activator, full curve]
O=C1C2C3C=CC(C2C(=O)N1c1cccc(O)c1)C1C2C(=O)N(c4cccc(O)c4)C(=O)C2C31 (stereo not given) 11.6 µM [falling, single point]
CCCn1c(N)c(N(CCOC)C(=O)c2ccc(-c3ccccc3)cc2)c(=O)[nH]c1=O 29.1 µM [activator, single point]
Cc1cccn2cc(-c3ccccc3)nc12 13 µM [activator, single point]

3 compounds already listed, sorted by molar mass, high to low:
Potency, inconclusive:
O=C1C2C3C=CC(C2C(=O)N1c1cccc(O)c1)C1C2C(=O)N(c4cccc(O)c4)C(=O)C2C31 (stereo not given) 11.6 µM [falling, single point]
Cc1cccn2cc(-c3ccccc3)nc12 13 µM [activator, single point]
CCCCC(=O)c1ccc(O)cc1 0.164 µM [falling, full curve, poor fit]
